PubChem BioAssay AID2685 (National Center for Advancing Translational Sciences (NCATS), 2010)
Some of the results follow. The main result of the screen is listed elsewhere. These columns were measured beside it and carry no call. The list favours compounds with an active or inconclusive main result. The note in brackets gives the kind of curve behind each potency; many fits are weak.

Assay: qHTS Assay for Lipid Storage Modulators in Drosophila S3 Cells;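 as to cell number change: cells counted by Cell Tracker Red CMTPX staining in the red channel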
Conditions: BODIPY lipid droplet fluorescence, 18-24 h; for cell number change: measured here: cell count max response, cells fed with added oleic acid
Method in brief: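 Drosophila S3 cells got compounds at several concentrations plus oleic acid (400 uM solution). Laser-scanning cytometry with 488 nm excitation read lipid droplets at 500-530 nm and cells at 575-640 nm. Percent activity was relative to 20 uM Triacsin C.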

[1] = measured here: cell number channel AC50, cells fed with added oleic acid
[2] = measured here: lipid fluorescence (Fed channel) AC50, cells fed with added oleic acid

Row | Compound | cell number change [%] | AC50 [1] | AC50 [2]
1 | O=C(COC(=O)C1CCCCC1)Nc1ccc(S(=O)(=O)N2CCOCC2)cc1 | 30.3 | 3.66 µM [rising, full curve] | 29.1 µM [rising, single point]
2 | Cc1cccc(NC(=O)c2ccccc2NC(=O)c2ccccc2)n1 | -0.708 |  | 29.1 µM [rising, single point]
3 | CC(C)c1ccc(C(=O)CSc2n[nH]c(-c3ccncc3)n2)cc1 | 143 | 29.1 µM [rising, single point] | 
4 | COC(=O)c1ccc(CN2CCCC(CCC(=O)NCc3ccc(C)o3)C2)cc1 (configuration not stated) | 14.9 |  | 1.84 µM [rising, partial curve]
5 | O=C(Cn1nnc(-c2ccccc2F)n1)Nc1ccc2c(c1)OCO2 | -5.78 |  | 
6 | Nc1nnc(SCC(=O)Nc2ccc3c(c2)OCCO3)s1 | 24.8 |  | 29.1 µM [rising, single point]
7 | CN(NS(C)(=O)=O)c1c(C#N)c(C(F)(F)F)nn1C |  |  | 4.61 µM [falling, single point]
8 | CCOC(=O)c1c(C)n(OC)c2ccc3c(no[n+]3[O-])c12 | 23.7 |  | 0.517 µM [falling, single point]
9 | CC(O)CNCCOc1cccc(Oc2ccccc2)c1 (configuration not stated) | -43.7 | 6.51 µM [falling, partial curve] | 6.51 µM [falling, full curve]
10 | CCn1c(SCC(=O)c2c(N)n(C)c(=O)n(C)c2=O)nc2sc(C)c(C)c2c1=O | 73.2 | 16.4 µM [rising, single point] | 
11 | Cc1cccc(N2C(=O)CC(Sc3nccc(C)n3)C2=O)c1 (configuration not stated) | 21.6 |  | 6.51 µM [rising, single point]
12 | CSCCC(NC(=O)c1ccccc1Cl)C(=O)NCC(c1cccs1)N(C)C (configuration not stated) | -8.33 |  | 
13 | CCC(C)c1ccccc1OCCn1ccnc1 (configuration not stated) | 50.5 | 1.16 µM [rising, partial curve] | 
14 | Cc1cc(C(=O)Cn2nc(C(=O)O)c3ccccc3c2=O)c(C)n1CC(F)(F)F | -9.86 |  | 
15 | CCOC(=O)N1CCC(Nc2c(-c3ccc(C)c(C)c3)c(=O)c2=O)CC1 |  |  | 16.4 µM [falling, partial curve, poor fit]
16 | O=C(NCc1cccs1)C1CCN(S(=O)(=O)c2ccc(Br)s2)CC1 | 58.5 | 20.6 µM [rising, single point] | 
17 | CCN(CC)CCNCc1ccc(Br)cc1OCC(=O)NCc1ccccc1 | -2.12 |  | 
18 | CN(c1ccc(OCC(=O)Nc2ccc3[nH]c(=O)[nH]c3c2)cc1)S(=O)(=O)c1ccc(Cl)cc1 | 50.1 | 25.9 µM [rising, single point] | 5.8 µM [falling, single point]
19 | CC1(C)CC(=O)C2=C(C1)N(c1cccnc1)C(N)=C(C#N)C2c1cccs1 (configuration not stated) | 5.36 |  | 20.6 µM [rising, single point]
20 | Cc1ccc(NC(=O)c2ccc3nc[nH]c3c2)c(O)c1 | -21.2 | 0.0058 µM [falling, full curve, poor fit] | 0.00461 µM [falling, full curve, poor fit]
21 | Cc1cc(-c2ccco2)c(C#N)c2nc3ccccc3n12 | -34.3 | 2.31 µM [falling, full curve] | 

Row | Compound | cell number change [%] | AC50 [1] | AC50 [2]
22 | CCOc1ccc(Cn2c(=O)oc3ccccc32)cc1 | -11.6 |  | 0.103 µM [rising, full curve, poor fit]
23 | c1coc(-c2nnc(SCc3cn4ccccc4n3)o2)c1 | 48 | 0.00461 µM [rising, full curve, poor fit] | 
24 | Cc1ccc(C(=O)N/N=C\c2cccn2C)cn1 | -5.75 |  | 
25 | Cc1c(C(=O)N2CCN(c3ccccc3)CC2)sc2ncnc(N3CCC(C)CC3)c12 |  |  | 6.51 µM [rising, single point]
26 | CCN(CC)S(=O)(=O)N1CCC(C(=O)NCc2ccc3c(c2)OCO3)CC1 | 28.4 |  | 9.2 µM [rising, partial curve]
27 | COc1ccc(-n2nc(C(=O)NCC(=O)Nc3cc(C)ccc3OC)c3ccccc3c2=O)c(OC)c1 | 87.8 | 20.6 µM [rising, partial curve] | 
28 | CCCCS(=O)(=O)Nc1ccc(C(=O)NCC2CCCO2)cc1 (configuration not stated) |  |  | 0.259 µM [falling, full curve]
29 | Cc1ccc(-n2c(Cc3cccs3)nnc2SCC(N)=O)cc1 | -14.2 |  | 0.517 µM [falling, single point]
30 | O=C1C(=O)c2ccccc2C(O)=C1C1CCC(c2ccc(Cl)cc2)CC1 (configuration not stated) |  |  | 4.61 µM [falling, full curve]
31 | Cc1ccc(CN=C(N)Nc2nc(C)cc(C)n2)cc1 | -43.4 | 23.1 µM [falling, single point] | 25.9 µM [falling, partial curve, poor fit]
32 | CCCCNC(=O)c1cc2ccccc2s1 | 50.1 | 6.51 µM [rising, full curve] | 3.26 µM [rising, full curve]
33 | COc1ccc(S(=O)(=O)NC(C)C(=O)N2CCCC2)cc1Cl (configuration not stated) | 6.87 |  | 23.1 µM [falling, single point]
34 | Clc1ccc2nc(-c3ccc(Br)s3)cn2c1 | 135 | 29.1 µM [rising, single point] | 23.1 µM [rising, single point]
35 | CCOc1ccc(N(CC(=O)Nc2cccc(Br)c2)S(C)(=O)=O)cc1 | -36.5 |  | 
36 | Cc1ccc(N(C)S(=O)(=O)c2ccc3[nH]cc(C(=O)NCCCN4CCOCC4)c(=O)c3c2)cc1C | 13.9 |  | 0.13 µM [falling, full curve, poor fit]
37 | O=C(NCc1ccc2c(c1)OCO2)c1ccc(COc2cccc(Cl)c2)o1 | 17.3 |  | 0.461 µM [rising, single point]
38 | Cc1ccc(C)c(OCc2cc(C(=O)N3CCN(c4ccccc4C)CC3C)no2)c1 (configuration not stated) | 10.3 | 1.84 µM [rising, partial curve, poor fit] | 6.51 µM [rising, partial curve, poor fit]
39 | C=CCn1c(O)c(C(CC)=Nc2ccccc2NC(=O)CC)c(=O)[nH]c1=O | 13.1 |  | 0.651 µM [falling, single point]
40 | CCCCn1c(N)c(-c2nc3ccccc3o2)c2c([N+](=O)[O-])nn(C)c(=O)c21 | 5.88 |  | 29.1 µM [falling, single point]
41 | O=C1[C@@H]2C(c3cccnc3)=NO[C@@H]2C(=O)N1c1ccc2ccccc2c1 | -3.94 |  | 0.82 µM [falling, single point]
42 | Cc1ccccc1-n1nc(C(=O)O)cc1-c1ccccc1 |  |  | 6.51 µM [falling, single point]

Row | Compound | cell number change [%] | AC50 [1] | AC50 [2]
43 | O=C(CN1CCN(S(=O)(=O)c2ccc(F)cc2)CC1)Nc1ccc(F)cc1F | 9.23 |  | 
44 | CCOc1ccccc1-c1nc(C(N)=O)c2[nH]c(=O)n(-c3ccc(F)cc3)c2n1 | 74.7 | 29.1 µM [rising, single point] | 29.1 µM [falling, single point]
45 | CCCC(=O)C1CCN(Cc2ccccc2)CC1 | -0.642 |  | 1.64 µM [falling, partial curve]
46 | Cc1ccc(S(=O)(=O)N2CCOCC2)cc1NC(=O)COC(=O)C1COc2ccccc2O1 (configuration not stated) | 5.89 |  | 
47 | Cc1ccc(C)c(N2CC(=O)N(c3cc(C)ccc3C)CC2=O)c1 | -42.4 | 25.9 µM [falling, single point] | 29.1 µM [falling, single point]
48 | COc1ccccc1C(=O)Nc1ccc(OC(C)C(=O)N2CCOCC2)cc1 (configuration not stated) | 7.92 | 0.0092 µM [rising, full curve, poor fit] | 
49 | O=c1c2ccccc2nc(SCc2cc(F)cc3c2OCOC3)n1Cc1ccco1 | 7.81 |  | 
50 | Cn1cc(C2CC(c3ccccc3)=NN2C(=O)c2ccccc2)c2ccccc21 (configuration not stated) | -24.2 |  | 
51 | Cc1ccc(NC(=O)CCOc2ccccc2)c(C)c1 | 11 |  | 0.092 µM [rising, full curve]
52 | CCOc1ccccc1OCCCC(=O)N(CC)CC(=O)Nc1c(F)cccc1F | -29.5 |  | 16.4 µM [falling, partial curve, poor fit]
53 | O=C(NCc1ccc(Cl)cc1)c1cccc(NC(=O)c2ccccc2)c1 | 29.6 |  | 2.06 µM [rising, full curve]
54 | CC(=O)Nc1ccccc1OCC(=O)c1ccc2c(c1)OCO2 | -17.3 |  | 
55 | CC(=O)c1cccc(NC(=O)NC(C)c2ccc3c(c2)OCO3)c1 (configuration not stated) | -34.9 |  | 35.5 µM [falling, single point]
56 | C=CCOC(=O)C1=C(C)OC(N)=C(C#N)C1c1c(C)nn(-c2ccccc2)c1Cl (configuration not stated) | -36.4 | 23.1 µM [falling, partial curve] | 16.4 µM [falling, partial curve, poor fit]
57 | CN1CCN(c2nc(N3CCN(CCO)CC3)nc3ccccc23)CC1 | -12.9 |  | 29.1 µM [rising, single point]
58 | O=C(/C=C/Nc1ccc(Oc2ccccc2)cc1)c1ccco1 | -39.4 | 18.4 µM [falling, partial curve, poor fit] | 
59 | CC1=NN(c2ccc(Cl)cc2)C(=O)/C1=C\c1cccn1-c1ccc(S(N)(=O)=O)cc1 | -11.7 |  | 0.651 µM [rising, single point]
60 | COC(=O)CSc1ncnc2scc(-c3ccccc3)c12 | 39.2 | 8.2 µM [rising, partial curve] | 9.2 µM [rising, partial curve]
61 | CC(C)CN1C(=O)c2ccc(C(=O)Nc3nccs3)cc2C1=O | -17.6 |  | 1.03 µM [rising, single point]

Given with tabs: entries from further up.
Row	Compound	cell number change [%]	AC50 [1]	AC50 [2]
43	O=C(CN1CCN(S(=O)(=O)c2ccc(F)cc2)CC1)Nc1ccc(F)cc1F	9.23		
45	CCCC(=O)C1CCN(Cc2ccccc2)CC1	-0.642		1.64 µM [falling, partial curve]
46	Cc1ccc(S(=O)(=O)N2CCOCC2)cc1NC(=O)COC(=O)C1COc2ccccc2O1 (configuration not stated)	5.89		
47	Cc1ccc(C)c(N2CC(=O)N(c3cc(C)ccc3C)CC2=O)c1	-42.4	25.9 µM [falling, single point]	29.1 µM [falling, single point]
49	O=c1c2ccccc2nc(SCc2cc(F)cc3c2OCOC3)n1Cc1ccco1	7.81		
